Results as given in US20250283871A1, “COMPOSITIONS AND METHODS FOR MODULATING THE INTERACTION BETWEEN SS18-SSX FUSION ONCOPROTEIN AND NUCLEOSOMES” (Dana-Farber Cancer Institute, Inc., priority 2020, published 2025).

System: BAF complex subunits and histone proteins
Assay: Mass spectrometry proteomics of purified HA-SS18 WT and HA-SS18-SSX1 complexes (Tables 5A-5E)
Design: species or system human
Conditions: for Total (total peptides) / Unique (unique peptides): HA-SS18SSX1 purification, NE (soluble nuclear extract) fraction, peptides per identified protein
[1] = HA-SS18WT_NE_peptides: HA-SS18 WT complexes purified from nuclear extract (NE), HEK-293T, label = protein identified (Gene Symbol)
[2] = HA-SS18SSX1_NE_peptides: protein co-purified with HA-SS18-SSX1 BAF complexes from soluble nuclear extract (NE), HEK-293T cells
[3] = HA-SS18WT_NE_peptides: proteins co-purified with HA-SS18 WT from nuclear extract (NE), HEK-293T

Row | Molecule | Total (total peptides) (HEK-293T) | Unique (unique peptides) (HEK-293T) | Total (peptides) [1] | Unique (peptides) [1] | Total (peptides) [2] | Unique (peptides) [2] | Total (peptides) [3] | Unique (peptides) [3]
1 | ACADM (protein, UniProt P11310 26-421, looked up) Medium-chain specific …: KANRQREPGLGFSFEFTEQQKEFQATARKFAREEIIPVAAEYDKTGEYPVPLIRRAWELGLMNTHIPENCGGLGLGTFDACLISEELAYGCTGVQTAIEGNSLGQMPIIIAGNDQQKKKYLGRMTEEPLMCAYCVTEPGAGSDVAGIKTKAEKKGDEYIINGQKMWITNGGKANWYFLLARSDPDPKAPANKAFTGFIVEADTPGIQIGRKELNMGQRCSDTRGIVFEDVKVPKENVLIGDGAGFKVAMGAFDKTRPVVAAGAVGLAQRALDEATKYALERKTFGKLLVEHQAISFMLAEMAMKVELARMSYQRAAWEVDSGRRNTYYASIAKAFAGDIANQLATDAVQILGGNGFNTEYPVEKLMRDAKIYQIYEGTSQIQRLIVAREHIDKYKN | 8 | 8 | 10 | 9 | – | – | – | –
2 | SUCLA2 (protein, UniProt Q9P2R7 53-463, looked up) Succinate--CoA ligase …: LSLHEYMSMELLQEAGVSVPKGYVAKSPDEAYAIAKKLGSKDVVIKAQVLAGGRGKGTFESGLKGGVKIVFSPEEAKAVSSQMIGKKLFTKQTGEKGRICNQVLVCERKYPRREYYFAITMERSFQGPVLIGSSHGGVNIEDVAAESPEAIIKEPIDIEEGIKKEQALQLAQKMGFPPNIVESAAENMVKLYSLFLKYDATMIEINPMVEDSDGAVLCMDAKINFDSNSAYRQKKIFDLQDWTQEDERDKDAAKANLNYIGLDGNIGCLVNGAGLAMATMDIIKLHGGTPANFLDVGGGATVHQVTEAFKLITSDKKVLAILVNIFGGIMRCDVIAQGIVMAVKDLEIKIPVVVRLQGTRVDDAKALIADSGLKILACDDLDEAARMVVKLSEIVTLAKQAHVDVKFQLPI | 9 | 6 | 5 | 5 | 1 | 1 | 1 | 1
3 | ATP5C1 (protein, UniProt P36542 26-298, looked up) ATP synthase F(1) complex …: ATLKDITRRLKSIKNIQKITKSMKMVAAAKYARAERELKPARIYGLGSLALYEKADIKGPEDKKKHLLIGVSSDRGLCGAIHSSIAKQMKSEVATLTAAGKEVMLVGIGDKIRGILYRTHSDQFLVAFKEVGRKPPTFGDASVIALELLNSGYEFDEGSIIFNKFRSVISYKTEEKPIFSLNTVASADSMSIYDDIDADVLQNYQEYNLANIIYYSLKESTTSEQSARMTAMDNASKNASEMIDKLTLTFNRTRQAVITKELIEIISGAAALD | 9 | 6 | 12 | 8 | – | – | – | –
4 | PDS5A (protein, UniProt Q29RF7 1-1337, looked up) Sister chromatid cohesion …: MDFTAQPKPATALCGVVSADGKIAYPPGVKEITDKITTDEMIKRLKMVVKTFMDMDQDSEDEKQQYLPLALHLASEFFLRNPNKDVRLLVACCLADIFRIYAPEAPYTSHDKLKDIFLFITRQLKGLEDTKSPQFNRYFYLLENLAWVKSYNICFELEDCNEIFIQLFRTLFSVINNSHNKKVQMHMLDLMSSIIMEGDGVTQELLDSILINLIPAHKNLNKQSFDLAKVLLKRTVQTIEACIANFFNQVLVLGRSSVSDLSEHVFDLIQELFAIDPHLLLSVMPQLEFKLKSNDGEERLAVVRLLAKLFGSKDSDLATQNRPLWQCFLGRFNDIHVPVRLESVKFASHCLMNHPDLAKDLTEYLKVRSHDPEEAIRHDVIVTIITAAKRDLALVNDQLLGFVRERTLDKRWRVRKEAMMGLAQLYKKYCLHGEAGKEAAEKVSWIKDKLLHIYYQNSIDDKLLVEKIFAQYLVPHNLETEERMKCLYYLYASLDPNAVKALNEMWKCQNMLRSHVRELLDLHKQPTSEANCSAMFGKLMTIAKNLPDPGKAQDFVKKFNQVLGDDEKLRSQLELLISPTCSCKQADICVREIARKLANPKQPTNPFLEMVKFLLERIAPVHIDSEAISALVKLMNKSIEGTADDEEEGVSPDTAIRSGLELLKVLSFTHPTSFHSAETYESLLQCLRMEDDKVAEAAIQIFRNTGHKIETDLPQIRSTLIPILHQKAKRGTPHQAKQAVHCIHAIFTNKEVQLAQIFEPLSRSLNADVPEQLITPLVSLGHISMLAPDQFASPMKSVVANFIVKDLLMNDRSTGEKNGKLWSPDEEVSPEVLAKVQAIKLLVRWLLGMKNNQSKSANSTLRLLSAMLVSEGDLTEQKRISKSDMSRLRLAAGSAIMKLAQEPCYHEIITPEQFQLCALVINDECYQVRQIFAQKLHKALVKLLLPLEYMAIFALCAKDPVKERRAHARQCLLKNISIRREYIKQNPMATEKLLSLLPEYVVPYMIHLLAHDPDFTRSQDVDQLRDIKECLWFMLEVLMTKNENNSHAFMKKMAENIKLTRDAQSPDESKTNEKLYTVCDVALCVINSKSALCNADSPKDPVLPMKFFTQPEKDFCNDKSYISEETRVLLLTGKPKPAGVLGAVNKPLSATGRKPYVRSTGTETGSNINVNSELNPSTGNRSREQSSEAAETGVSENEENPVRIISVTPVKNIDPVKNKEINSDQATQGNISSDRGKKRTVTAAGAENIQQKTDEKVDESGPPAPSKPRRGRRPKSESQGNATKNDDLNKPINKGRKRAAVGQESPGGLEAGNAKAPKLQDLAKKAAPAERQIDLQR | 8 | 8 | 7 | 7 | – | – | – | –
5 | DDX28 (protein, UniProt Q9NUL7 1-540, looked up) Probable ATP-dependent RNA …: MALTRPVRLFSLVTRLLLAPRRGLTVRSPDEPLPVVRIPVALQRQLEQRQSRRRNLPRPVLVRPGPLLVSARRPELNQPARLTLGRWERAPLASQGWKSRRARRDHFSIERAQQEAPAVRKLSSKGSFADLGLEPRVLHALQEAAPEVVQPTTVQSSTIPSLLRGRHVVCAAETGSGKTLSYLLPLLQRLLGQPSLDSLPIPAPRGLVLVPSRELAQQVRAVAQPLGRSLGLLVRDLEGGHGMRRIRLQLSRQPSADVLVATPGALWKALKSRLISLEQLSFLVLDEADTLLDESFLELVDYILEKSHIAEGPADLEDPFNPKAQLVLVGATFPEGVGQLLNKVASPDAVTTITSSKLHCIMPHVKQTFLRLKGADKVAELVHILKHRDRAERTGPSGTVLVFCNSSSTVNWLGYILDDHKIQHLRLQGQMPALMRVGIFQSFQKSSRDILLCTDIASRGLDSTGVELVVNYDFPPTLQDYIHRAGRVGRVGSEVPGTVISFVTHPWDVSLVQKIELAARRRRSLPGLASSVKEPLPQAT | 8 | 8 | 6 | 6 | – | – | – | –
